Where a protein sequence is shown, tags need not be part of it. For at least one entry, the source does not settle the construct or the ends of the probe. Weaker means in comparison with the reference protein, sequence or condition of that experiment. At least one verdict rests on a figure or table, not on a statement of the authors.
Biological target: T1, SoxR (Hyphomicrobium denitrificans) (UniProt D8JT35)
T1 sequence (looked up): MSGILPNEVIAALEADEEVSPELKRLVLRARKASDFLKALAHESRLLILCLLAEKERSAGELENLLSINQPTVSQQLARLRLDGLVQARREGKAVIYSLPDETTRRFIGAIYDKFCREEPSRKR
Assay: EMSA
Settings: EMSA: 10 mM Tris-HCl pH 8.0, 50 mM KCl, 1 mM DTT, about 7% glycerol, 17 nM DNA, 15 ul, 20 min at room temperature, then 30 min at 30 C with DNA, 6% native gel, 0.25x TBE, recombinant protein, residues 1-124, protein details: N-terminal Strep-tag (WSHPQFEK), probe letters rebuilt from the primers and the genome

Sequence	binding result (DTT-reduced)	binding result (polysulfide-treated, then DTT-reduced)	binding result (thiosulfate, second shifted band lost at ratio 5, first persists at ratio 50 (0.2 mM))	binding result (300 and 700 nM SoxR)
GGGTCACCAAATTCTGCAGGTCTCAATGCGAATGCGAGGCTGCTCCAGCTAGACGAAAAACAAGGAACGTTGCAATAGATAATTCACATATGATAATTTTCATATGTGTTATAGGATGAACGTTATCGCAGCTTCCGGGAGAGATGGCGTGAT (double strand) [soxA-soxY intergenic fragment, 151 bp]	binds	binds	binds more weakly	
TTCCCGCCCCGTCTTGGTTTTTGTTTTACTTGCCTACCGAATACGTTTTGCAGCGAAGCGCCCTTGAGGGCGCTCGATCTCTTCCGGTGAGGGTTCGTGTCGATTGTTCAGCGCTCGCCTGGAAGTCGGCGCCAGCTATTAGATATGAATATTCCTATATTCAAATATAAATCGCAACGGAAGCGCATCGTCAAGGCCGTGCTCCGTGGTGCGCTACGCATCACCGCGTACGTTTGAGAACACAGCTTTGCCCGAAAATATATAAAGATATGAATATGTTGATGCTTAGATTTGAGTTGCAAGCTCTCTGCTGCATCGGTAGGTGATTAGCGAATATTCACGCTTTTTTGGATGCAACTCCT (double strand) [soxT1A-shdrR intergenic region, 362 bp]				binds
